# Source: publication PMC12501277, “The deubiquitylase OTUB1 drives gemcitabine resistance in pancreatic cancer by enhancing pyrimidine metabolism through modulating DHODH mRNA stability” (Cell Death & Disease, 2025)
# By UniProt entry, the sequences of proteins in these tests, tags left out.
# UniProt Q96FW1: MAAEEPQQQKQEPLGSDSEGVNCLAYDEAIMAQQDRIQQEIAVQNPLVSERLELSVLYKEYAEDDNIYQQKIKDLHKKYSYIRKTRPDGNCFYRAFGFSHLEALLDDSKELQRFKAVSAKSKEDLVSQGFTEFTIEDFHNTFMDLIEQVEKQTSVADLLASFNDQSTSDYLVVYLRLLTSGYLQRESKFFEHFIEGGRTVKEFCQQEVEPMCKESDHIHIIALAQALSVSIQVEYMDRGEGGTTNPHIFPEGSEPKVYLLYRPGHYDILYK
# UniProt O00571: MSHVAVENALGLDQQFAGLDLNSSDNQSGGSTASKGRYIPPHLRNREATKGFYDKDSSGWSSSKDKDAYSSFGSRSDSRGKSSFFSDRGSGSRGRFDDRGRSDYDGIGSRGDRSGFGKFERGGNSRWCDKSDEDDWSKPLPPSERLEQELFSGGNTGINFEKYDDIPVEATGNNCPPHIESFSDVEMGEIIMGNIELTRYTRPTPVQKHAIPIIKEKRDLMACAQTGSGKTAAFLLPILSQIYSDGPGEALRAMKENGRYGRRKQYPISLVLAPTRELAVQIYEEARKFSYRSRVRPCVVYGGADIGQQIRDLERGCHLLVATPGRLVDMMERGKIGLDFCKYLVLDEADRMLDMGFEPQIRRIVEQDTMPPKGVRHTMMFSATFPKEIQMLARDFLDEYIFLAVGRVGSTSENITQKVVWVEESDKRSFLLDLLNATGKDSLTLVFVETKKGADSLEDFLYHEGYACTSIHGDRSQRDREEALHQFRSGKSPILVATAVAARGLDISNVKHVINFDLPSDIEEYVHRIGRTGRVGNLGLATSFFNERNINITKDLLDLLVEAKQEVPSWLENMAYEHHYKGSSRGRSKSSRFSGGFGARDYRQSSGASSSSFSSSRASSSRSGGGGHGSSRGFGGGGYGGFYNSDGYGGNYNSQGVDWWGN
# No constants are given. Whether binding was seen depends on the method and setting. Binding seen in cells or lysates may run through a third protein. Here binding means that the protein was enriched with, or labelled near, the bait; the list need not be complete.
# Target: OTUB1 (human (endogenous in AsPC-1)) (UniProt Q96FW1)
# Assay: affinity purification with mass spectrometry; OTUB1 immunoprecipitates from PC cells analysed by mass spectrometry
substance,measurement,value
DEAD-box helicase 3 X-linked (DDX3X) (from UniProt O00571 1-662),binding,binds
